# Data reported in the supplement of paper PMC5407854, “Inhibitor of ppGalNAc-T3-mediated O-glycosylation blocks cancer cell invasiveness and lowers FGF23 levels” (eLife, 2017).
# The list shows a part of the results. Small differences around the control level are noise.
# Columns and labels:
# ppGalNAc-T3 sensor = experiment: T3 sensor activation Q score (MG/GFP ratio z-score vs DMSO controls) (SD units); higher = more sensor activation (inhibition of ppGalNAc-T3 glycosylation); conditions: HEK293 sensor cells; 10 µM; 6 h
# Experimental: (§1)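 Cells were treated with compound at 10 uM for 6 h, then MG/GFP ratio was read by flow cytometry (10,000 cells per well, duplicate wells). Q = (R - R_neg)/SD_neg relative to DMSO vehicle controls; the signal rises when the glycosyltransferase is inhibited.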
# ppGalNAc-T2 sensor = experiment: T2 sensor activation Q score (MG/GFP ratio z-score vs DMSO controls) (SD units); higher = more sensor activation (inhibition of ppGalNAc-T2 glycosylation); conditions: HEK293 sensor cells; 10 µM; 6 h
# Experimental: as §1
compound,measurement,setting,value
NNC(=O)COc1ccccc1,T3 sensor activation Q score,ppGalNAc-T3 sensor,0.85
same,T2 sensor activation Q score,ppGalNAc-T2 sensor,0.055
NNC(=O)C(=O)Nc1ccc(Cl)cc1,T3 sensor activation Q score,ppGalNAc-T3 sensor,0.31
same,T2 sensor activation Q score,ppGalNAc-T2 sensor,-0.075
CN(C(=O)c1cccs1)c1ccccc1,T3 sensor activation Q score,ppGalNAc-T3 sensor,0.28
same,T2 sensor activation Q score,ppGalNAc-T2 sensor,-0.03
Cn1c(S(=O)(=O)Cc2ccc(Cl)cc2)nc2ccccc21,T3 sensor activation Q score,ppGalNAc-T3 sensor,-0.23
same,T2 sensor activation Q score,ppGalNAc-T2 sensor,1.66
CCc1ccc(S(=O)(=O)Nc2ccccc2OC)cc1,T3 sensor activation Q score,ppGalNAc-T3 sensor,-0.645
same,T2 sensor activation Q score,ppGalNAc-T2 sensor,-1.23
O=C(NCCCCc1ccccc1)c1ccccc1F,T3 sensor activation Q score,ppGalNAc-T3 sensor,0.26
same,T2 sensor activation Q score,ppGalNAc-T2 sensor,-0.99
Oc1ccccc1-c1nc(-c2ccccc2)no1,T3 sensor activation Q score,ppGalNAc-T3 sensor,-0.01
same,T2 sensor activation Q score,ppGalNAc-T2 sensor,-0.7
Cc1ccc(S(=O)(=O)Nc2ccc(OC(C)C)cc2)cc1,T3 sensor activation Q score,ppGalNAc-T3 sensor,-0.22
same,T2 sensor activation Q score,ppGalNAc-T2 sensor,-1.98
COc1ccc(OCC(=O)NCCc2ccccc2)cc1,T3 sensor activation Q score,ppGalNAc-T3 sensor,-0.2
same,T2 sensor activation Q score,ppGalNAc-T2 sensor,1.43
CCN(CC)c1ccc(Nc2nc(-c3ccncc3)cs2)cc1,T3 sensor activation Q score,ppGalNAc-T3 sensor,-0.42
same,T2 sensor activation Q score,ppGalNAc-T2 sensor,-0.645
Cc1cccc(OCCCN2CCCCC2)c1C,T3 sensor activation Q score,ppGalNAc-T3 sensor,0.16
same,T2 sensor activation Q score,ppGalNAc-T2 sensor,-1.35
Cc1nc(N)nc(OCC(F)(F)C(F)F)c1Br,T3 sensor activation Q score,ppGalNAc-T3 sensor,0.03
same,T2 sensor activation Q score,ppGalNAc-T2 sensor,1.14
CC(=O)c1cc2c(cc1N)OCCO2,T3 sensor activation Q score,ppGalNAc-T3 sensor,-0.24
same,T2 sensor activation Q score,ppGalNAc-T2 sensor,1.23
CC(C)Oc1ccc(NC(=O)c2ccco2)cc1,T3 sensor activation Q score,ppGalNAc-T3 sensor,-0.55
same,T2 sensor activation Q score,ppGalNAc-T2 sensor,-1.75
CC1CCCN(CC(O)COCc2ccc(Cl)cc2)C1 (stereo not given),T3 sensor activation Q score,ppGalNAc-T3 sensor,-0.425
same,T2 sensor activation Q score,ppGalNAc-T2 sensor,-0.185
O=[N+]([O-])c1cc2c(cc1CN1CCN(c3ccc(F)cc3)CC1)OCO2,T3 sensor activation Q score,ppGalNAc-T3 sensor,0.17
same,T2 sensor activation Q score,ppGalNAc-T2 sensor,-0.96
CN1CCCN(Cc2ccccc2)CC1,T3 sensor activation Q score,ppGalNAc-T3 sensor,0.695
same,T2 sensor activation Q score,ppGalNAc-T2 sensor,-0.44
CNC(=O)N1c2ccccc2CCc2ccccc21,T3 sensor activation Q score,ppGalNAc-T3 sensor,-0.41
same,T2 sensor activation Q score,ppGalNAc-T2 sensor,-0.315
O=C(Nc1ccc(N2CCOCC2)cc1)c1ccccc1,T3 sensor activation Q score,ppGalNAc-T3 sensor,0.18
same,T2 sensor activation Q score,ppGalNAc-T2 sensor,0.59
COc1ccc(NC2=C(N(C)C)C(=O)c3ccccc3C2=O)cc1,T3 sensor activation Q score,ppGalNAc-T3 sensor,-0.26
same,T2 sensor activation Q score,ppGalNAc-T2 sensor,0.315
O=C(O)CCCC(=O)Nc1ccc(Cl)cc1,T3 sensor activation Q score,ppGalNAc-T3 sensor,0.81
same,T2 sensor activation Q score,ppGalNAc-T2 sensor,1.29
O=C(NC(=O)c1ccccc1)Oc1ccc(F)cc1,T3 sensor activation Q score,ppGalNAc-T3 sensor,0.465
same,T2 sensor activation Q score,ppGalNAc-T2 sensor,-0.495
O=C(CCSc1ccccc1)NC1CCCCC1,T3 sensor activation Q score,ppGalNAc-T3 sensor,0.52
same,T2 sensor activation Q score,ppGalNAc-T2 sensor,-0.475
CC(C)(C)S(=O)(=O)c1cccc(S(=O)(=O)C(C)(C)C)c1,T3 sensor activation Q score,ppGalNAc-T3 sensor,0.05
same,T2 sensor activation Q score,ppGalNAc-T2 sensor,-1.07
O=C(Nc1ccccc1C(=O)O)c1ccccc1,T3 sensor activation Q score,ppGalNAc-T3 sensor,-1.27
same,T2 sensor activation Q score,ppGalNAc-T2 sensor,-1.32
Nc1cccc(-c2nc3ccccc3s2)c1,T3 sensor activation Q score,ppGalNAc-T3 sensor,0.575
same,T2 sensor activation Q score,ppGalNAc-T2 sensor,-1.04
Cc1cc(C)c(C(=O)c2ccc(C(=O)N3CCOCC3)cc2)c(C)c1,T3 sensor activation Q score,ppGalNAc-T3 sensor,-0.355
same,T2 sensor activation Q score,ppGalNAc-T2 sensor,-0.115
C=CCN1C(=O)C(=O)C(=C(O)c2ccccc2)C1c1ccccc1 (stereo not given),T3 sensor activation Q score,ppGalNAc-T3 sensor,0.485
same,T2 sensor activation Q score,ppGalNAc-T2 sensor,-0.52
CC(=O)Nc1cc(O)cc(O)c1,T3 sensor activation Q score,ppGalNAc-T3 sensor,-0.86
same,T2 sensor activation Q score,ppGalNAc-T2 sensor,-1.27
COc1ccc(Cl)cc1NC(=O)Cc1ccccc1,T3 sensor activation Q score,ppGalNAc-T3 sensor,0.21
same,T2 sensor activation Q score,ppGalNAc-T2 sensor,-0.33
Cc1ccc(CN2CCN(c3ccccn3)CC2)c(C)c1,T3 sensor activation Q score,ppGalNAc-T3 sensor,-0.735
same,T2 sensor activation Q score,ppGalNAc-T2 sensor,-0.09
CCCN(CCO)Cc1ccccc1,T3 sensor activation Q score,ppGalNAc-T3 sensor,-0.465
same,T2 sensor activation Q score,ppGalNAc-T2 sensor,0.525
CC(C)NC(=O)COc1ccc(Cl)cc1Cl,T3 sensor activation Q score,ppGalNAc-T3 sensor,0.405
same,T2 sensor activation Q score,ppGalNAc-T2 sensor,0
CC1CC(Nc2ccccc2)c2ccccc2N1C(=O)c1ccco1 (stereo not given),T3 sensor activation Q score,ppGalNAc-T3 sensor,-0.13
same,T2 sensor activation Q score,ppGalNAc-T2 sensor,0.045
O=C(Nc1ccc(Br)cc1)c1cccs1,T3 sensor activation Q score,ppGalNAc-T3 sensor,-0.49
same,T2 sensor activation Q score,ppGalNAc-T2 sensor,-0.485
COc1ccccc1N1CCN(Cc2ccc(NC(C)=O)cc2)CC1,T3 sensor activation Q score,ppGalNAc-T3 sensor,0.44
same,T2 sensor activation Q score,ppGalNAc-T2 sensor,1.02
C=CCn1c(-c2ccc(OC)cc2)nc2ccccc21,T3 sensor activation Q score,ppGalNAc-T3 sensor,-0.375
same,T2 sensor activation Q score,ppGalNAc-T2 sensor,-1.06
Cc1ccc(S(=O)(=O)c2ccc(-c3ccc([N+](=O)[O-])cc3)cc2)cc1,T3 sensor activation Q score,ppGalNAc-T3 sensor,0.165
same,T2 sensor activation Q score,ppGalNAc-T2 sensor,0.27
c1ccc(CN2CCN(Cc3cccnc3)CC2)cc1,T3 sensor activation Q score,ppGalNAc-T3 sensor,-0.37
same,T2 sensor activation Q score,ppGalNAc-T2 sensor,0.03
O=C1CCS(=O)(=O)c2ccccc21,T3 sensor activation Q score,ppGalNAc-T3 sensor,-0.57
same,T2 sensor activation Q score,ppGalNAc-T2 sensor,-0.26
O=C(Nc1ccc(Cl)cc1)C(=O)NC1CC1,T3 sensor activation Q score,ppGalNAc-T3 sensor,0.455
same,T2 sensor activation Q score,ppGalNAc-T2 sensor,0.155
CCCNC(=O)c1ccc(C(=O)NCCC)cc1,T3 sensor activation Q score,ppGalNAc-T3 sensor,1.2
same,T2 sensor activation Q score,ppGalNAc-T2 sensor,-0.49
COc1cc(C)c(CN2CCSCC2)cc1C,T3 sensor activation Q score,ppGalNAc-T3 sensor,-0.36
same,T2 sensor activation Q score,ppGalNAc-T2 sensor,-0.715
OC1CCCN(Cc2cccc(Cl)c2)C1 (stereo not given),T3 sensor activation Q score,ppGalNAc-T3 sensor,0.185
same,T2 sensor activation Q score,ppGalNAc-T2 sensor,-1.25
O=C1CCCc2sc([N+](=O)[O-])cc21,T3 sensor activation Q score,ppGalNAc-T3 sensor,0.24
same,T2 sensor activation Q score,ppGalNAc-T2 sensor,0.07
CNC(=O)c1c(O)c2ccccc2[nH]c1=O,T3 sensor activation Q score,ppGalNAc-T3 sensor,0.145
same,T2 sensor activation Q score,ppGalNAc-T2 sensor,1.41
Cc1cc(C)n(-c2nncn2N)n1,T3 sensor activation Q score,ppGalNAc-T3 sensor,-0.71
same,T2 sensor activation Q score,ppGalNAc-T2 sensor,0.695
COc1cccc(NC(=O)C(c2ccccc2)c2ccccc2)c1,T3 sensor activation Q score,ppGalNAc-T3 sensor,0.385
same,T2 sensor activation Q score,ppGalNAc-T2 sensor,-0.635
CCCN(CCC)S(=O)(=O)c1ccc(C(=O)N2CCN(C)CC2)cc1,T3 sensor activation Q score,ppGalNAc-T3 sensor,0.65
same,T2 sensor activation Q score,ppGalNAc-T2 sensor,-0.35
CCN(CC)CCN(C)Cc1cccc(F)c1,T3 sensor activation Q score,ppGalNAc-T3 sensor,0.755
same,T2 sensor activation Q score,ppGalNAc-T2 sensor,0.07
COc1cc(N)c(C)cc1NC(C)=O,T3 sensor activation Q score,ppGalNAc-T3 sensor,-0.01
same,T2 sensor activation Q score,ppGalNAc-T2 sensor,-0.28
O=C1c2ccccc2C(=O)N1n1cnnc1,T3 sensor activation Q score,ppGalNAc-T3 sensor,-0.255
same,T2 sensor activation Q score,ppGalNAc-T2 sensor,-0.995
CC(C(=O)NCC1(c2ccccc2)CCOCC1)N1CCCC1 (stereo not given),T3 sensor activation Q score,ppGalNAc-T3 sensor,0.215
same,T2 sensor activation Q score,ppGalNAc-T2 sensor,-0.815
Cc1nc2ccc(Br)cc2[nH]1,T3 sensor activation Q score,ppGalNAc-T3 sensor,0.75
same,T2 sensor activation Q score,ppGalNAc-T2 sensor,-0.015
Cc1ccc(OCC(=O)Nc2ccccc2C(N)=O)cc1,T3 sensor activation Q score,ppGalNAc-T3 sensor,-0.35
same,T2 sensor activation Q score,ppGalNAc-T2 sensor,-0.11

# In a second layout: results already given
compound | measurement | setting | value
CN(C(=O)c1cccs1)c1ccccc1 | T2 sensor activation Q score | ppGalNAc-T2 sensor | -0.03
O=C(CCSc1ccccc1)NC1CCCCC1 | T3 sensor activation Q score | ppGalNAc-T3 sensor | 0.52
same | T2 sensor activation Q score | ppGalNAc-T2 sensor | -0.475
Cc1ccc(CN2CCN(c3ccccn3)CC2)c(C)c1 | T2 sensor activation Q score | ppGalNAc-T2 sensor | -0.09
CNC(=O)c1c(O)c2ccccc2[nH]c1=O | T2 sensor activation Q score | ppGalNAc-T2 sensor | 1.41

# Some of the entries so far, with bars between the fields:
compound | measurement | setting | value
Oc1ccccc1-c1nc(-c2ccccc2)no1 | T3 sensor activation Q score | ppGalNAc-T3 sensor | -0.01
same | T2 sensor activation Q score | ppGalNAc-T2 sensor | -0.7
